PubChem BioAssay AID504793 – Drosophila RNAi Screening Center, 2011

Aim: 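Knock-downs allowing continued mitosis even though DNA is damaged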 (primary screen)
System: Drosophila S2R+ cells
Reagents: long dsRNA against Drosophila genes, about 0.25 µg dsRNA per well
Time to read-out: 4 days of dsRNA, then 4 hours of drug before read-out
Challenge: doxorubicin 0.5 µM for 4 hours to cause double-strand breaks, in cells also given a low, harmless dose of dsRNA against nbs to sensitise the assay
Measured: 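Mitotic index as the number of phospho-histone H3-positive cells in each well following doxorubicin, given as raw counts without normalisation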
Direction: mitotic cells: higher = more cells in mitosis, weaker G2 arrest
Hit rule: 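Genes are called active only when high mitotic counts were reproduced with independent dsRNAs and mitosis was checked for delay without damage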
Meaning of the calls: active = confirmed in follow-up tests; inactive = not confirmed
The screen tested about 23,000 reagents; shown is an unselected part of those with a known target gene and a result. Of all reagents, 62 (0.27%) got an active call. 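Calls come from follow-up tests whose scores are not deposited, so confirmed genes may have low counts here; counts are not normalised per plate.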 The raw values are shown without normalisation. A plus sign joins genes that one reagent is predicted to hit.

mitotic cells, replicate 1 | mitotic cells, replicate 2 | call | gene | dsRNA
10 | – | inactive | tobi | DRSC14435
6 | – | inactive | Art2 | DRSC00627
3 | – | inactive | Gyc89Da | DRSC15008
7 | – | inactive | Lk | DRSC10022
6 | – | inactive | CG9626 | DRSC16525
3 | – | inactive | CG9626 | DRSC27021
7 | – | inactive | CG31810 + CG31809 | DRSC25411
2 | – | inactive | mRpL16 | DRSC18550
8 | – | inactive | mRpL16 | DRSC29510
5 | – | inactive | Arfip | DRSC15179
2 | – | inactive | Arfip | DRSC27068
3 | – | inactive | RabX1 | DRSC04678
3 | – | inactive | FAM21 | DRSC06623
6 | – | inactive | FAM21 | DRSC26589
10 | – | inactive | CG1227 | DRSC12534
5 | – | inactive | CG1227 | DRSC25952
5 | – | inactive | Dscam4 | DRSC08913
4 | – | inactive | Dscam4 | DRSC10031
6 | – | inactive | Dscam4 | DRSC10329
8 | – | inactive | Dscam4 | DRSC10765
5 | – | inactive | Dscam4 | DRSC27460
5 | – | inactive | Den1 | DRSC07195
11 | – | inactive | Nup62 | DRSC06970
9 | – | inactive | CG7173 | DRSC23252
9 | – | inactive | CG7173 | DRSC29453
6 | – | inactive | CG8617 | DRSC07223
4 | – | inactive | CG11267 | DRSC09833
5 | – | inactive | CG15882 | DRSC19735
– | – | inactive | CG17036 | DRSC02564
2 | – | inactive | CG17036 | DRSC28145
4 | – | inactive | CG14024 | DRSC00868
3 | – | inactive | CG14024 | DRSC02354
8 | – | inactive | mbc | DRSC16995
6 | – | inactive | CG13983 | DRSC02315
7 | – | inactive | CG13983 | DRSC28917
5 | – | inactive | CG11041 | DRSC06025
3 | – | inactive | CG11041 | DRSC29269
9 | – | inactive | Nepl18 | DRSC14879
7 | – | inactive | hoka | DRSC08313
9 | – | inactive | Raf | DRSC18821
13 | – | inactive | Raf | DRSC23311
7 | – | inactive | Raf | DRSC36609
2 | – | inactive | TpnC4 | DRSC04856
8 | – | inactive | veli | DRSC16276
6 | – | inactive | veli | DRSC27872
11 | – | inactive | CG30384 | DRSC06032
3 | – | inactive | Hsp27 | DRSC11190
4 | – | inactive | Hsp27 | DRSC26877
6 | – | inactive | Rel | DRSC16819
7 | – | inactive | CG33483 | DRSC14019
4 | – | inactive | GstE5 | DRSC06675
10 | – | inactive | CG30356 | DRSC05119
4 | – | inactive | Dnz1 | DRSC03317
13 | – | inactive | Dnz1 | DRSC24926
6 | – | inactive | H15 | DRSC03339
9 | – | inactive | H15 | DRSC22199
9 | – | inactive | H15 | DRSC25176
6 | – | inactive | CG9284 (retired record) | DRSC03899
7 | – | inactive | CG9284 (retired record) | DRSC04536
8 | – | inactive | Rala | DRSC18703
6 | – | inactive | Rala | DRSC27866
8 | – | inactive | resilin | DRSC05627
4 | – | inactive | resilin | DRSC06595
4 | – | inactive | CG13870 | DRSC06429
8 | – | inactive | RagA-B | DRSC14450
13 | – | inactive | Cyp4d14 | DRSC18457
15 | – | inactive | Cyp4d14 | DRSC24460
7 | – | inactive | comm3 | DRSC09993
2 | – | inactive | comm3 | DRSC09994
6 | – | inactive | comm3 | DRSC09995
11 | – | inactive | CG14302 | DRSC14781
4 | – | inactive | CG16736 | DRSC15145
2 | – | inactive | CG33465 | DRSC05587
7 | – | inactive | eIF3d1 | DRSC16938
– | – | inactive | CG11961 | DRSC06099
1 | – | inactive | mRpL40 | DRSC15749
5 | – | inactive | mRpL40 | DRSC27264
10 | – | inactive | CG7914 | DRSC20068
4 | – | inactive | CG7914 | DRSC28931
3 | – | inactive | Sbf | DRSC16852
9 | – | inactive | Sbf | DRSC27418
8 | – | inactive | CG5608 | DRSC15841
6 | – | inactive | CG11322 | DRSC02142
6 | – | inactive | CG11322 | DRSC24585
3 | – | inactive | Fer2 | DRSC15925
3 | – | inactive | modSP | DRSC16726
1 | – | inactive | modSP | DRSC16857
12 | – | inactive | modSP | DRSC21489
4 | – | inactive | Spn27A | DRSC03608
10 | – | inactive | Tbcc | DRSC00223
7 | – | inactive | Tbcc | DRSC30109
3 | – | inactive | CG5790 | DRSC02896
3 | – | inactive | CG5790 | DRSC26201
5 | – | inactive | Nedd8 | DRSC02092
7 | – | inactive | THG | DRSC01896
1 | – | inactive | bdwf | DRSC15532
9 | – | inactive | REPTOR-BP | DRSC02683
3 | – | inactive | corolla | DRSC20102
6 | – | inactive | Tango2 | DRSC19394
6 | – | inactive | Tango2 | DRSC21526
7 | – | inactive | RpLP0 | DRSC11878
18 | – | inactive | RpLP0 | DRSC22110
4 | – | inactive | mbm | DRSC00319
– | – | inactive | miple2 | DRSC08723
17 | – | inactive | CG3062 | DRSC18572
9 | – | inactive | CG32631 | DRSC19768
3 | – | inactive | CG32631 | DRSC28596
7 | – | inactive | CG30103 | DRSC06894
5 | – | inactive | CG30103 | DRSC29743
10 | – | inactive | CG3734 | DRSC15509
5 | – | inactive | CG3734 | DRSC25892
5 | – | inactive | ABCB7 | DRSC08603
3 | – | inactive | swaPsi | DRSC21685
5 | – | inactive | Shc | DRSC11284
3 | – | inactive | Glg1 | DRSC11815
5 | – | inactive | Glg1 | DRSC11816
5 | – | inactive | Glg1 | DRSC11817
5 | – | inactive | eIF4E4 | DRSC09701
16 | – | inactive | chas | DRSC19508
15 | – | inactive | chas | DRSC19509
1 | – | inactive | chas | DRSC29130
10 | – | inactive | CG13840 | DRSC23279
6 | – | inactive | CG13840 | DRSC28749
10 | – | inactive | CR18275 + CG13373 | DRSC17900
8 | – | inactive | CG6321 | DRSC10623
12 | – | inactive | Or47b | DRSC07492
8 | – | inactive | ocn | DRSC17020
2 | – | inactive | tai | DRSC02673
9 | – | inactive | stnB + stnA | DRSC20969
27 | 4 | inactive | stnB + stnA | DRSC21112
7 | – | inactive | stnB + stnA | DRSC21113
3 | – | inactive | CG1773 | DRSC06688
– | – | inactive | Sk2 | DRSC08556
6 | – | inactive | Pif1A | DRSC14383
7 | – | inactive | cype | DRSC02356
7 | – | inactive | ppk5 | DRSC11492
1 | – | inactive | Ns2 | DRSC06993
4 | – | inactive | Ns2 | DRSC29008
9 | – | inactive | CG31418 | DRSC21780
7 | – | inactive | CG31418 | DRSC26160

13 entries already listed, arranged by “mitotic cells, replicate 1”, highest first.
mitotic cells, replicate 1 | mitotic cells, replicate 2 | call | gene | dsRNA
15 | – | inactive | Cyp4d14 | DRSC24460
13 | – | inactive | Cyp4d14 | DRSC18457
11 | – | inactive | CG14302 | DRSC14781
8 | – | inactive | resilin | DRSC05627
8 | – | inactive | RagA-B | DRSC14450
7 | – | inactive | comm3 | DRSC09993
6 | – | inactive | Rala | DRSC27866
6 | – | inactive | comm3 | DRSC09995
4 | – | inactive | resilin | DRSC06595
4 | – | inactive | CG13870 | DRSC06429
4 | – | inactive | CG16736 | DRSC15145
2 | – | inactive | comm3 | DRSC09994
2 | – | inactive | CG33465 | DRSC05587
